Among the data in publication PMC5681625 are binding values, retold here.

The chains behind the UniProt entries cited, without tags or fusion partners. Residues count along the entry.
UniProt Q60841, residues 27-3461: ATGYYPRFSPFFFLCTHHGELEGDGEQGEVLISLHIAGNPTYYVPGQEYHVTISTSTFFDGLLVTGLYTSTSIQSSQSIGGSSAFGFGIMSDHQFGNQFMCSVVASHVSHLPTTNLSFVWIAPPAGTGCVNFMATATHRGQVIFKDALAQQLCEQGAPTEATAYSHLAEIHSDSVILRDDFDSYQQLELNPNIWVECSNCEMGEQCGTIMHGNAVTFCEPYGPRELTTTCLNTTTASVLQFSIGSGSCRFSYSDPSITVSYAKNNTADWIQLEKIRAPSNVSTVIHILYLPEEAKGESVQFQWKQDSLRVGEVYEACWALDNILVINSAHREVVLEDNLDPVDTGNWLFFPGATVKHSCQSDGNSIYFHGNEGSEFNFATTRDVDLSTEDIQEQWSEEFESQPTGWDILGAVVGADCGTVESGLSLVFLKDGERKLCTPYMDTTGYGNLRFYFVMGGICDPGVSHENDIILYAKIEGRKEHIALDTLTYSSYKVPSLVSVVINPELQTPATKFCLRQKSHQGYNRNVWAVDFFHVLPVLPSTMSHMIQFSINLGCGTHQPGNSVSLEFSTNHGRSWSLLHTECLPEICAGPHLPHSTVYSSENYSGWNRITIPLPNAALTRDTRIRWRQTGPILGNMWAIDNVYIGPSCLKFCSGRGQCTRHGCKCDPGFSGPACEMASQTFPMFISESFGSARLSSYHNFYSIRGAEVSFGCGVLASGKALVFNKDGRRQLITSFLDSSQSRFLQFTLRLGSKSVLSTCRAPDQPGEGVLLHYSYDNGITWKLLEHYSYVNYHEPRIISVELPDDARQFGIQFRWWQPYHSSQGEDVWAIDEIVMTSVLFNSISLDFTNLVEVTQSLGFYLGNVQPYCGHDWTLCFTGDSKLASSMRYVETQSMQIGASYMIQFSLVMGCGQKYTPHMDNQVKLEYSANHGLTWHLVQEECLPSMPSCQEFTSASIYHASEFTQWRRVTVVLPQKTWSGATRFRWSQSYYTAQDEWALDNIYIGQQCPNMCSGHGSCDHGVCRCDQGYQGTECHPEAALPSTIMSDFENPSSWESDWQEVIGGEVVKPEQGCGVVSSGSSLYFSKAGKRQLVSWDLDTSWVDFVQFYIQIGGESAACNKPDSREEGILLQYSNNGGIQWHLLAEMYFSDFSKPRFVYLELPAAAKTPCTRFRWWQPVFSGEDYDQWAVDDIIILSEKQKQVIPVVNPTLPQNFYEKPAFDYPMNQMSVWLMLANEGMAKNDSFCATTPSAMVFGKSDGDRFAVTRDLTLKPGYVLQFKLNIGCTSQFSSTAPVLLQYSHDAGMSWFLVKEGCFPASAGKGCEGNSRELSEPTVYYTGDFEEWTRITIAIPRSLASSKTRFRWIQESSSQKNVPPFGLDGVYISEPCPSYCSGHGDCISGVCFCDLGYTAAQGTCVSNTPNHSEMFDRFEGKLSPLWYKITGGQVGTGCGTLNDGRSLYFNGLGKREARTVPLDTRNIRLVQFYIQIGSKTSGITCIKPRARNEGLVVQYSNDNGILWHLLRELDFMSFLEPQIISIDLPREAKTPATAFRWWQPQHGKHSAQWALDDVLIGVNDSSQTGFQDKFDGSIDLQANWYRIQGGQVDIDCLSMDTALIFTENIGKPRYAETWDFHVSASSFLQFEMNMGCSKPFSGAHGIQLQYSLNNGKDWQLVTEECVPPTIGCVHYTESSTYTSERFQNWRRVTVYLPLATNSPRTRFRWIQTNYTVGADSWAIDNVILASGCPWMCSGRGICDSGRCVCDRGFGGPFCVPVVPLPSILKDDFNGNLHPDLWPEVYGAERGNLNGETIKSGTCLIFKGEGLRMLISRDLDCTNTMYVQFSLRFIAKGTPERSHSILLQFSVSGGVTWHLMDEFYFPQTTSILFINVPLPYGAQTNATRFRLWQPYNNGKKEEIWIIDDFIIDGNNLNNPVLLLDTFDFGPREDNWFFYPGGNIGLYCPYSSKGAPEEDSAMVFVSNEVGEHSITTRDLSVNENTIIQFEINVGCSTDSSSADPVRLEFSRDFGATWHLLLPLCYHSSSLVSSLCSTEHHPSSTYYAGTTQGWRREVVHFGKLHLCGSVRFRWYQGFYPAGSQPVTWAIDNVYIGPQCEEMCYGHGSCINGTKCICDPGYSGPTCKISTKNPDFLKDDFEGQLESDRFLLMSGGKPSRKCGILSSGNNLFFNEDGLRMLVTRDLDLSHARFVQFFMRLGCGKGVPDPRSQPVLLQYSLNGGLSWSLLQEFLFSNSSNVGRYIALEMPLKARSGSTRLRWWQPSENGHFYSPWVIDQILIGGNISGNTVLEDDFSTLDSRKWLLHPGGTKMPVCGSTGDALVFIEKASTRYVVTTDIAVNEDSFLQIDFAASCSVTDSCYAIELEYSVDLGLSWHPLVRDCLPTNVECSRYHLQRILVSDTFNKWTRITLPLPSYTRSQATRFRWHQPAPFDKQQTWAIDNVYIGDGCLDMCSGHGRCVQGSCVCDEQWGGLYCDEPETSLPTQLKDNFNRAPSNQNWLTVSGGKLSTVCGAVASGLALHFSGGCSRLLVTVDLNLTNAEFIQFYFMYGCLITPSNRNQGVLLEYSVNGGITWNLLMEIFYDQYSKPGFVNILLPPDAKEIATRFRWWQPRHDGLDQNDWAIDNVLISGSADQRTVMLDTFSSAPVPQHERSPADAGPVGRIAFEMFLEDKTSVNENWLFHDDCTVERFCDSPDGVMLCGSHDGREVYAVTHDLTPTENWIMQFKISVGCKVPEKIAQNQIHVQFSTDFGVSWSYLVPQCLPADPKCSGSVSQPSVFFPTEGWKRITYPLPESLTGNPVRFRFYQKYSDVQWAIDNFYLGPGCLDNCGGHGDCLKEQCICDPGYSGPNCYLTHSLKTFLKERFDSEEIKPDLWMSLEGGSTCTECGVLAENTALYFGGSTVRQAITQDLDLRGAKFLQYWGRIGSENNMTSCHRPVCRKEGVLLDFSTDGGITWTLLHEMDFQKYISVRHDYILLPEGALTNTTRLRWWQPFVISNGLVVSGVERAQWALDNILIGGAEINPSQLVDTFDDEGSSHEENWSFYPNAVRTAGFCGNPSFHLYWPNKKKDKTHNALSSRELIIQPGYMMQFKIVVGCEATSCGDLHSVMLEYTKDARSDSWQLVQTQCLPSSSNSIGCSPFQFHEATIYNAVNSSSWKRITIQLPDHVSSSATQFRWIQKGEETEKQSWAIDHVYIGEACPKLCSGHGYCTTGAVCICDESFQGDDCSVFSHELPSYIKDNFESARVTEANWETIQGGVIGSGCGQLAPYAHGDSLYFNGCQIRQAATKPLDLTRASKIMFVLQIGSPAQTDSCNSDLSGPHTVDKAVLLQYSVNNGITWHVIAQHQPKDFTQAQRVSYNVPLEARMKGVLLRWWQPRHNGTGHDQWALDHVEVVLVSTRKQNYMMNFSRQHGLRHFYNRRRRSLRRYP
UniProt P11627, residues 20-1123: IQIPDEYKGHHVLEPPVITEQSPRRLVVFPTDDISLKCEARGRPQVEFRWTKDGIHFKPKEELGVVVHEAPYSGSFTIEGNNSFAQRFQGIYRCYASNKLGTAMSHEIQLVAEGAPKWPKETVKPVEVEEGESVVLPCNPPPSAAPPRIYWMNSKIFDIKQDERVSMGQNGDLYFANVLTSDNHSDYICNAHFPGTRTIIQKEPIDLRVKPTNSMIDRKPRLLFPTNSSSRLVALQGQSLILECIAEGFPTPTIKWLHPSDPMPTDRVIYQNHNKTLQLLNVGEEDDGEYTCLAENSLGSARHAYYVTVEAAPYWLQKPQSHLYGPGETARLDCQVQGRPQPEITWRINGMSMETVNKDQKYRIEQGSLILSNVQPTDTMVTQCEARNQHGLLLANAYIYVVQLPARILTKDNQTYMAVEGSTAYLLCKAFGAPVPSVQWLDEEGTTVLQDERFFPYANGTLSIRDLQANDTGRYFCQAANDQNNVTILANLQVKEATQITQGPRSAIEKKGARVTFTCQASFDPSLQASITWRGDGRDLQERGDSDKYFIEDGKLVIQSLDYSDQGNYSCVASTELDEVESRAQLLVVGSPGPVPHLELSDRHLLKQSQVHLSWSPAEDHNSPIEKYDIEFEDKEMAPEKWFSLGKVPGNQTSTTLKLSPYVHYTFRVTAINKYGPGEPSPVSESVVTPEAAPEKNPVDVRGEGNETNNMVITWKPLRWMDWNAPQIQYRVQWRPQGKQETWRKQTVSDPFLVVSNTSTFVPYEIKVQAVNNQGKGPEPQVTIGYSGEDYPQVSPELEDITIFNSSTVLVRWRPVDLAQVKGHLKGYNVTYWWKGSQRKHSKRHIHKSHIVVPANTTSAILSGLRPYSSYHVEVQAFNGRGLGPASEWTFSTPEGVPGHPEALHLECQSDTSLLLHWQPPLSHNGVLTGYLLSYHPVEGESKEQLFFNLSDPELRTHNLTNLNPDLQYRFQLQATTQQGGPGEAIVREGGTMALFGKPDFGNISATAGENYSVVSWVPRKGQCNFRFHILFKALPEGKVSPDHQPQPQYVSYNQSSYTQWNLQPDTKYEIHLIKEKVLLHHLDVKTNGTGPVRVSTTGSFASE

In test [1] the target is purified recombinant Reelin (mouse) (UniProt Q60841). The test can be described thus: ELISA; purified recombinant Reelin substrate-coated on 384-well plates (4 °C overnight), blocked with 1% BSA in PBS; 5 µg of L1-Fc or Fc added, room temperature 1 h; detected with anti-Fc-HRP; both purified.
For test [2], the target named is full-length Reelin (mouse) (UniProt Q60841). The test can be described thus: ELISA; 5 µg of serum-free Reelin-containing HEK supernatant (concentrated 5-fold, dialysed) substrate-coated on 384-well plates; 5 µg of L1-Fc or Fc added, room temperature 1 h; detected with anti-Fc-HRP; only the binder purified. For orientation: An ELISA detects its analyte on a solid surface through an enzyme-linked reagent.

Test [3] concerns the target L1-Fc comprising the extracellular part of mouse L1 fused to Fc part of human IgG (mouse) (UniProt P11627). The test can be described thus: pull-down; L1-Fc or Fc on Protein A beads with supernatants of Reelin-expressing and Reelin-lacking HEK cells; immunoblot with Reelin antibody G10; only the target purified. For orientation: A western blot detects proteins with antibodies after separation by electrophoresis.

The target is the same in test [4]. The experiment in a line: ELISA; L1-Fc or Fc substrate-coated; Reelin-containing HEK cell supernatant applied; detected with Reelin antibody G10; only the target purified.
Test [5] shares this target. The experiment in a line: ELISA; 5 µg of L1-Fc or Fc substrate-coated on 384-well plates; 5 µg of purified Reelin added, room temperature 1 h; detected with Reelin antibody G10; both purified.

No constants are given. Whether binding was seen depends on the method and setting. For some assays here: Binding seen in cells or lysates may run through a third protein. Some binding calls cover weakened binding; strength is not graded here.

Regarding “L1-Fc comprising the extracellular part of mouse L1 fused to Fc part of human IgG (from UniProt P11627 20-1123) (Fc fusion)”, the binding result in test [1] and in test [2] was “binds” throughout.
With “full-length Reelin (from UniProt Q60841 27-3461)”, the binding entry in test [3] and in test [4] was “binds” each time.
In the case of “purified recombinant Reelin (from UniProt Q60841 27-3461)”, the binding result in test [5] is recorded as “binds”.
